Results on one substance are retold here after paper PMC10324254.

Amino acid sequences for entries named in this document (tags omitted).
UniProt P09874: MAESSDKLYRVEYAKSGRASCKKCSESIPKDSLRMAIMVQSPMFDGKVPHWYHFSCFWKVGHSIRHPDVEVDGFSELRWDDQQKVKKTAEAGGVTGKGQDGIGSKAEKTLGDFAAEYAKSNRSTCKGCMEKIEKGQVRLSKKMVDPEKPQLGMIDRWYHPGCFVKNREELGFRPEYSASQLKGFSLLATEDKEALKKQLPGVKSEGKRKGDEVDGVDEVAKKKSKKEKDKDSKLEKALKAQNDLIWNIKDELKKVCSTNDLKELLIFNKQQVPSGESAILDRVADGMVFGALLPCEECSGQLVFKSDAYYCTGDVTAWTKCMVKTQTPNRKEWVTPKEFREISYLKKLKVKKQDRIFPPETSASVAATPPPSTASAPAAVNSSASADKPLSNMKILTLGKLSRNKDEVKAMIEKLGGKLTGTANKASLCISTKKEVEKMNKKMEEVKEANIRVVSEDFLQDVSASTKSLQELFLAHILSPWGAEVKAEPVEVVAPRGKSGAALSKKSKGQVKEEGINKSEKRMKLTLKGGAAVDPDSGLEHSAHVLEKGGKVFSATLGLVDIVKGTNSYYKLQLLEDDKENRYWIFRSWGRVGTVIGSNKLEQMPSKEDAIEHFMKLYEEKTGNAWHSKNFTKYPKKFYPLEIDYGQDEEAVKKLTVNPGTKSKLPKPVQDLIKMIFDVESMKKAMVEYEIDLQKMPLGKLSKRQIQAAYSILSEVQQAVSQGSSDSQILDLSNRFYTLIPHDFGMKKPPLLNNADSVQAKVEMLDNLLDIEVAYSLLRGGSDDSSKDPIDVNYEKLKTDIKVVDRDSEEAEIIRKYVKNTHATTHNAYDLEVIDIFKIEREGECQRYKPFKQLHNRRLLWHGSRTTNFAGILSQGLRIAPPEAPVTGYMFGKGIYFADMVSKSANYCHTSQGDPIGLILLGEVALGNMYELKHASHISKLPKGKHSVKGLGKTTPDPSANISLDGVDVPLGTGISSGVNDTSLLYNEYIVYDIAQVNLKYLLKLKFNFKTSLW
UniProt P08238: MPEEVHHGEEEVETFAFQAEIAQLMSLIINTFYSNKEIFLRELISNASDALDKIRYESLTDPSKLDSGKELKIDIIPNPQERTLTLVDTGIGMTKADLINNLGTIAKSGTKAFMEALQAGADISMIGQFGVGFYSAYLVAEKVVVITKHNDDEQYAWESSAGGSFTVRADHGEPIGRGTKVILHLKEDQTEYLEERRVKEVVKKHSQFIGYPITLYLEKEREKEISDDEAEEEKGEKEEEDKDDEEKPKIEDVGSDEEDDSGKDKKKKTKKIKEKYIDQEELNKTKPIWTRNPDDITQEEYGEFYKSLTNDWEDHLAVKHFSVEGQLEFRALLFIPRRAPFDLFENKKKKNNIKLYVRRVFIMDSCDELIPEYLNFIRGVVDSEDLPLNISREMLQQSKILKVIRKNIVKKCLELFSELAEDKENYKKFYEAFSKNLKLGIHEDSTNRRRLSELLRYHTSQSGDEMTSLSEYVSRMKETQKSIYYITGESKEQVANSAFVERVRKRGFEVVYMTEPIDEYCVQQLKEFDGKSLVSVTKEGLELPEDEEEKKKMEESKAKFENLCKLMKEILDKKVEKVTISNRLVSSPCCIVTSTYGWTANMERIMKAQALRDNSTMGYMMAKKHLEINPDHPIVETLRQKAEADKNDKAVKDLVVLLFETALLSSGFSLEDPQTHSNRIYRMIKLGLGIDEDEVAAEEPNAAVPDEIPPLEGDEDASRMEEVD

No constants are given. Whether binding was seen depends on the method and setting. Binding seen in cells or lysates may run through a third protein. A yes stands for co-enrichment or nearness to the bait. Other partners may have been found.

For the assay, the target named is PARP1 (poly (ADP-ribose) polymerase 1) (human (endogenous in PC3)) (UniProt P09874). Put plainly: affinity purification with mass spectrometry; IP from nuclear protein extracts of PC3 cells, immunoprecipitated proteins analysed by MS, compared with a control group.

Regarding “HSP90AB1 (heat shock protein alpha family class B) (from UniProt P08238 1-724)”, the binding result is listed as “binds”.
